Experimental data published in publication PMC11014988.
These are yes or no findings as the source states them, for the method shown. In cells and extracts the contact can be indirect. Some entries that bind do so weakly or less than the wild type. Where a sequence is shown, tags or fusion partners need not be part of it.

T1: Mdm34-HA (yeast (S. cerevisiae; endogenous locus, strains derived from YPH499)) (UniProt P53083)
T1 sequence: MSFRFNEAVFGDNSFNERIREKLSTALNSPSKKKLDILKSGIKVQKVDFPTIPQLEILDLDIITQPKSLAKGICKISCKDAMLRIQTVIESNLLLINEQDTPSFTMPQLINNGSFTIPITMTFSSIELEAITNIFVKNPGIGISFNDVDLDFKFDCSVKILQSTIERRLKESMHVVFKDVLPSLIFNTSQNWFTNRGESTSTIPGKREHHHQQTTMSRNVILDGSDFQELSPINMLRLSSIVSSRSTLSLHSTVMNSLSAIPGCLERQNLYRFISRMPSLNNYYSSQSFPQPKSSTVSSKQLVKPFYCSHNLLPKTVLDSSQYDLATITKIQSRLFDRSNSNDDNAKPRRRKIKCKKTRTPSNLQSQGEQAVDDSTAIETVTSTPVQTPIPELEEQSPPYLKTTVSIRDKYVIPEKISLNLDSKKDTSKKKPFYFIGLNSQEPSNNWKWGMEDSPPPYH


Biological target: T1, Mdm34-HA (yeast (S. cerevisiae; endogenous locus, strains derived from YPH499))
Experiment: co-IP; radiolabeled precursor from reticulocyte lysate incubated 5 min with semi-intact cells of wild type or Mdm34-HA cells; lysed in 10 mM Tris pH 7.5, 150 mM NaCl, 0.5 mM EDTA, 0.5% Triton X-100; HA antibody and Protein A beads, 1 h at 4 °C; SDS-PAGE and autoradiography

Row | binding | Binder
1 | binds | Oxa1 precursor (protein, UniProt P39952 1-402, 35S-methionine (radiolabeled)) MFKLTSRLVTSRFAASSRLATARTIVLPRPHPSWISFQAKRFNSTGPNANDVSEIQTQLPSIDELTSSAPSLSASTSDLIANTTQTVGELSSHIGYLNSIGLAQTWYWPSDIIQHVLEAVHVYSGLPWWGTIAATTILIRCLMFPLYVKSSDTVARNSHIKPELDALNNKLMSTTDLQQGQLVAMQRKKLLSSHGIKNRWLAAPMLQIPIALGFFNALRHMANYPVDGFANQGVAWFTDLTQADPYLGLQVITAAVFISFTRLGGETGAQQFSSPMKRLFTILPIISIPATMNLSSAVVLYFAFNGAFSVLQTMILRNKWVRSKLKITEVAKPRTPIAGASPTENMGIFQSLKHNIQKARDQAERRQLMQDNEKKLQESFKEKRQNSKIKIVHKSNFINNKK
2 | no binding | mature form of Oxa1 (protein, UniProt P39952 43-402, 35S-methionine (radiolabeled)) NSTGPNANDVSEIQTQLPSIDELTSSAPSLSASTSDLIANTTQTVGELSSHIGYLNSIGLAQTWYWPSDIIQHVLEAVHVYSGLPWWGTIAATTILIRCLMFPLYVKSSDTVARNSHIKPELDALNNKLMSTTDLQQGQLVAMQRKKLLSSHGIKNRWLAAPMLQIPIALGFFNALRHMANYPVDGFANQGVAWFTDLTQADPYLGLQVITAAVFISFTRLGGETGAQQFSSPMKRLFTILPIISIPATMNLSSAVVLYFAFNGAFSVLQTMILRNKWVRSKLKITEVAKPRTPIAGASPTENMGIFQSLKHNIQKARDQAERRQLMQDNEKKLQESFKEKRQNSKIKIVHKSNFINNKK
